# Measured data: PubChem BioAssay AID493246 (Drosophila RNAi Screening Center, 2011)
# Purpose: 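Genome-wide search for dsRNAs that reduce cell number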 (primary screen)
# Cells: Drosophila Kc and S2R+ cells
# Knock-down reagent: long dsRNA against Drosophila genes
# Measured: 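Cell number per well after knock-down, printed as raw plate values; calls were based on per-plate z-scores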
# Scale: Kc cell number and S2R+ cell number: higher = more cells remaining
# Active means: 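Active when the per-plate z-score of cell number is 3 or more in the direction of fewer cells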
# The screen tested about 21,000 reagents; below is a random part of those with a known target gene and a result. Of all reagents, 429 (2%) were called active. 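Values are raw and not normalised between plates; calls rest on per-plate z-scores that were not deposited.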 Unmarked entries are inactive. A plus sign joins genes that one reagent is predicted to hit. Not given: the amount of reagent, the time to read-out.
gene,DRSC id,"Kc cell number, rep 1","Kc cell number, rep 2","S2R+ cell number, rep 1","S2R+ cell number, rep 2"
Tmtc3 (Transmembrane O-mannosyltransferase targeting cadherins 3),DRSC04444,1.58e6,1.61e6,1.08e6,1.12e6
CG5478,DRSC15814,1.30e6,1.39e6,1.21e6,1.38e6
CG5255,DRSC15754,1.29e6,1.42e6,1.09e6,1.23e6
CG13614,DRSC14617,1.41e6,1.47e6,1.06e6,1.13e6
CG3358,DRSC04992,1.48e6,1.52e6,1.17e6,1.27e6
CG2938,DRSC18243,5.71e5,,8.79e5,
Dnaaf3 (Dynein axonemal assembly factor 3),DRSC06684,1.58e6,1.63e6,1.24e6,1.40e6
CG8419,DRSC03087,1.90e6,1.89e6,1.22e6,1.40e6
CG17028,DRSC10239,1.27e6,1.22e6,1.23e6,1.34e6
CG2209,DRSC19843,1.56e6,1.58e6,1.02e6,1.17e6
msl-1 (male-specific lethal 1),DRSC03573,1.63e6,1.65e6,1.20e6,3.25e5
Spn77Ba (Serpin 77Ba),DRSC10693,1.50e6,1.54e6,1.28e6,1.30e6
CG18420,DRSC01954,1.42e6,1.51e6,1.24e6,1.39e6
CG32655,DRSC18925,1.27e6,1.43e6,1.02e6,1.09e6
CG12620,DRSC02177,1.53e6,1.58e6,1.24e6,1.38e6
CG1161,DRSC12180,7.77e5 (active),8.04e5,7.25e5,7.79e5
fu (fused),DRSC20333,1.34e6,1.39e6,8.97e5,1.01e6
CG3744,DRSC15511,1.57e6,1.54e6,9.45e5,1.01e6
Cyp6t3 (Cytochrome P450 6t3),DRSC07388,1.63e6,1.72e6,1.27e6,1.39e6
CG7300,DRSC03044,1.27e6,1.27e6,1.01e6,8.58e5
edl (ETS-domain lacking),DRSC06516,1.40e6,1.42e6,1.21e6,1.29e6
CG3588,DRSC18473,1.46e6,1.46e6,1.00e6,1.07e6
Dph4 (Diphthamide biosynthesis 4),DRSC12318,1.42e6,1.45e6,1.26e6,1.33e6
CCAP (Crustacean cardioactive peptide),DRSC15674,1.59e6,1.61e6,1.02e6,1.11e6
CG13587,DRSC04223,1.53e6,1.61e6,1.27e6,1.41e6
CG40005 (retired record) + cta,DRSC03763,6.90e5,,8.97e5,

Reagents above called active:
gene,DRSC id,"Kc cell number, rep 1","Kc cell number, rep 2","S2R+ cell number, rep 1","S2R+ cell number, rep 2"
CG1161,DRSC12180,7.77e5 (active),8.04e5,7.25e5,7.79e5

Continued.
gene,DRSC id,"Kc cell number, rep 1","Kc cell number, rep 2","S2R+ cell number, rep 1","S2R+ cell number, rep 2"
lncRNA:CR32553 (long non-coding RNA:CR32553),DRSC19229,1.13e6,1.46e6,1.08e6,1.11e6
su(sable) (suppressor of sable),DRSC18839,1.44e6,1.44e6,9.91e5,1.12e6
Atg9 (Autophagy-related 9),DRSC06848,1.31e6,1.36e6,1.25e6,1.23e6
CG42296,DRSC00394,1.55e6,1.53e6,1.00e6,1.08e6
7B2,DRSC11991,1.47e6,1.60e6,1.33e6,1.42e6
ND-13A (NADH dehydrogenase (ubiquinone) 13 kDa A subunit),DRSC03110,1.75e6,1.62e6,9.70e5,1.14e6
CG34282,DRSC16298,1.14e6,1.23e6,1.09e6,1.15e6
MAPk-Ak2 (MAP kinase activated protein-kinase-2),DRSC18678,1.66e6,1.61e6,1.14e6,1.20e6
CG31869,DRSC02582,1.49e6,1.54e6,1.19e6,1.32e6
CG31869,DRSC02674,1.58e6,1.63e6,1.19e6,1.28e6
odd (odd skipped),DRSC00832,1.12e6 (active),1.01e6,5.03e5,5.88e5
snoRNA:Me28S-C3227a + snoRNA:Me18S-A1061 + snoRNA:Me28S-C3227b + 7 more,DRSC05497,1.42e6,1.51e6,9.64e5,1.14e6
Osi7 (Osiris 7),DRSC12176,1.58e6,1.70e6,1.34e6,1.42e6
D (Dichaete),DRSC11132,1.54e6,1.50e6,1.21e6,1.29e6
Pi3K21B,DRSC00771,1.39e6,1.42e6,5.40e5,5.62e5
Acp62F (Accessory gland protein 62F),DRSC08136,1.43e6,1.33e6,1.04e6,1.31e6
Ugt303B1 (UDP-glycosyltransferase family 303 member B1),DRSC15141,1.61e6,1.70e6,1.02e6,1.12e6
Sf3b6 (Splicing factor 3b subunit 6),DRSC09972,1.51e6,1.52e6,9.06e5,1.06e6
CG14635,DRSC17945,1.59e6,1.65e6,9.80e5,1.16e6
CG13465,DRSC10011,1.30e6,1.43e6,1.22e6,1.31e6
Unc-115b + p24-2 + Unc-115a,DRSC16502,1.65e6,1.59e6,1.27e6,1.38e6
Pgd (Phosphogluconate dehydrogenase),DRSC18697,5.04e5,,8.10e5,
rn (rotund),DRSC12500,1.44e6 (active),1.25e6,6.10e5,7.00e5
rn (rotund),DRSC12543,1.55e6,1.70e6,1.41e6,1.55e6
rn (rotund),DRSC12544,1.58e6,1.65e6,1.26e6,1.40e6
rn (rotund),DRSC12546,1.60e6,1.57e6,1.33e6,1.50e6
Tep5Psi (Thioester-containing protein 5 pseudogene),DRSC02183,1.61e6,1.72e6,1.29e6,4.11e5
Tep5Psi (Thioester-containing protein 5 pseudogene),DRSC02184,1.68e6,1.78e6,1.34e6,3.97e5
CG2816,DRSC00539,1.63e6,1.65e6,1.24e6,1.39e6
CG9616,DRSC16518,1.29e6,1.17e6,9.21e5,9.96e5
CG17475,DRSC15238,1.26e6,1.30e6,1.22e6,1.33e6
CG17300,DRSC10260,1.35e6,1.52e6,1.39e6,1.57e6
CG2065,DRSC06813,1.74e6,1.98e6,1.32e6,1.74e6
